From patent US9221800B2, “Isoxazole treatments for diabetes” (The Board of Regents of the University of Texas System, priority 2011, dated 2015)
At least one compound was matched to its structure with a doubt left.

Tests used:
human islets = test: Insulin secretion and insulin content (ELISA) of cultured human islets; format: cell-based; conditions: FIG. 5E (human islets cultured 6 months, Isx 48 h); nifedipine together with the chelator BAPTA
Method: FIGS. 1A-E. Isx (LSH-1) induces expression of insulin and transcription factors in primary cultured human islets. (FIG. 1A) Primary human islets that had been cultured in RPMI 160 for 6 months were treated with vehicle or 40 μM Isx for 1 or 2 d. Expression of human insulin and glucagon genes was assessed by Taqman quantitative RT-PCR. (FIG. 1B) Insulin secretion measured by ELISA over 24 h from islets treated with Isx or vehicle for 1 or 2 d. (FIG. 1C) Total insulin content of islets cultured for 3 mo and fresh islets, each treated for 48 h with Isx or DMSO. (FIG. 1D) Time course of pancreatic gene induction in islets cultured for 1 year treated with DMSO (8 days) or 40 μM Isx for 2, 4 or 8 days. (FIG. 1E) Immunohistochemical staining using antibodies against insulin, BETA2, Neurogenin3 (Ngn3) and MafA of islets cultured for 2 months and treated with Isx or vehicle for 48 h. Nuclei were stained with DAPI.
FIGS. 5A-E. Gene expression induced by Isx (LSH-1) in human islet cultures. (FIG. 5A) Structure of the lead compound N-cyclopropyl-5-(thiophen-2-yl)isoxazole-3-carboxamide (Isx) used in this study. (FIG. 5B) Expression profiles of relevant islet factors by Sybr-Green qPCR analyses from human islets cultured for 1 year as in FIG. 1D. (FIG. 5C) Insulin immunohistochemical staining in human islets cultured for 2 months. Nuclei are stained with DAPI. (FIG. 5D) Immunoblotting of whole cell extracts from human islets cultured for six months treated with vehicle (DMSO) or Isx for 24 h. (FIG. 5E) Human islets cultured for 6 months were treated with DMSO (Veh) or Isx for 48 h. To implicate signaling pathways that are required for the isoxazole-driven increase in β cell function, measured as GSIS, the isoxazole-treated islets were also treated with vehicle (Veh), 10 μM U0126 (U), 10 μM Nifedipine-BAPTA (N-B), or 0.1 μM wortmannin (W) for the duration of the isoxazole treatment. […]

MIN6 cells = test: Immunoblotting of MIN6 whole cell lysates; format: cell-based, mouse; conditions: MIN6 pretreated with inhibitors 16 h (FIG. 4A); nifedipine in combination with the chelating agent BAPTA
Method: FIGS. 2[…]-1) activates insulin expression and improves β cell function in MIN6 cells. (FIG. 2A) Dose-response relationship of MIN6 cells treated with 5-80 μM Isx for 24 h or DMSO (0.08%-similar to the highest concentration of Isx). Whole cell lysates (40 μg) were subjected to immunoblotting using antibodies against BETA2NeuroD1, MafA, PDX-1, pERK1/2 (pT183/[…]), acetylated histones […] and ACH3K9 and total histone H3. (FIG. 2B) Quantitative RT-PCR of murine insulin1 and insulin2 gene expression in MIN6 cells treated with Isx for 24 h as in FIG. 2A. […] (FIG. 2D) Insulin content measured by ELISA in MIN6 cells treated with Isx for 24 or 48 h. (FIG. 2E) GSIS induced by glucose, amino acids (AA) and Exendin-4 (Ex-4) singly or in combination in MIN6 cells pretreated with Isx for 48 h. FIGS. 4[…]-1) is a HAT activator. (FIG. 4A) Immunoblots of acetylated histones in MIN6 cells pretreated with the indicated inhibitors for 16 h and then treated with vehicle or Isx. (FIGS. 4B-C) HDAC (FIG. 4B) and HAT (FIG. 4C) activities in 50 μg of nuclear extract protein from MIN6 cells treated with Isx or DMSO for 24 h. Trichostatin A (TSA; 2 μM) was added at as a positive control. HeLa nuclear extract also was included as a positive control. […] Statistical analysis was performed using Student's t test as in FIGS. 1A-E. *P<0.05; **P<0.01. (FIG. 4G) Simplified view of the actions of Isx. FIG. 6. Time course of […]-1) treatment in MIN6 cells. Immunoblotting of whole cell extracts from MIN6 cells grown for 24 h in complete DMEM containing […] and treated with 20 μM Isx for from 15 min to 24 h. The control (0 min) was treated with DMSO for 24 h. MIN6 cells were cultured in DMEM (Gibco), containing 25 mM glucose, 10% fetal bovine serum, 10 mM Hepes pH 7.4, 10.2 mM L-glutamine, […] sodium pyruvate, 2.5 mM β-mercaptoethanol, 100 U/ml penicillin and 100 μg/ml streptomycin at 37° C. in 10% CO2. Human islets were obtained from the ICR Basic Science Islet Distribution and from the University of Alabama, Birmingham Islet Resource Facility and were cultured in RPMI 1640 with 11 mM glucose for up to 1 year. The medium was changed twice weekly and the islets were subcultured when they reached 90% confluence. For Isx treatments, cells were incubated in medium containing either Isx or the equivalent volume of DMSO vehicle (0.04%). To measure GSIS, cells were placed in Krebs-Ringer bicarbonate/Hepes containing 0.1% bovine serum albumin and 2 mM glucose for 2 h, and stimulated for 15 min with 20 mM glucose, a 1× amino-acid mixture (concentrations as in DMEM), or 50 nM Exendin-4.

SMILES	effect of inhibitors on the increase in GSIS caused by Isx (human islets)	effect on Isx-induced acetylation of H4 (MIN6 cells)	effect on acetylation of H3 on lysines 9 and 14 induced by Isx (MIN6 cells)
COC[C@H]1OC(=O)c2coc3c2[C@@]1(C)C1=C(C3=O)[C@@H]2CCC(=O)[C@@]2(C)C[C@H]1OC(C)=O [wortmannin]	reduced	–	–
C=CC[C@@H]1/C=C(\C)C[C@H](C)C[C@H](OC)[C@H]2O[C@@](O)(C(=O)C(=O)N3CCCC[C@H]3C(=O)O[C@H](/C(C)=C/[C@@H]3CC[C@@H](O)[C@H](OC)C3)[C@H](C)[C@@H](O)CC1=O)[C@H](C)C[C@@H]2OC [FK506]	reduced	inhibited	little effect
COC(=O)C1=C(C)NC(C)=C(C(=O)OC)C1c1ccccc1[N+](=O)[O-] [nifedipine]	reduced	little effect	decreased
